Results taken from patent publication US20240197744A1, “TREATING SEX STEROID DEPENDENT CANCER WITH BMX INHIBITORS” (The Cleveland Clinic Foundation, priority 2021, published 2024).
Results are given in words; binding and its absence hold for the method and conditions named. Some entries that bind do so weakly or less than the wild type.

Biological target: T1, 3βHSD1 (endogenous, human prostate tissue) (human) (UniProt P14060)
T1 sequence (looked up): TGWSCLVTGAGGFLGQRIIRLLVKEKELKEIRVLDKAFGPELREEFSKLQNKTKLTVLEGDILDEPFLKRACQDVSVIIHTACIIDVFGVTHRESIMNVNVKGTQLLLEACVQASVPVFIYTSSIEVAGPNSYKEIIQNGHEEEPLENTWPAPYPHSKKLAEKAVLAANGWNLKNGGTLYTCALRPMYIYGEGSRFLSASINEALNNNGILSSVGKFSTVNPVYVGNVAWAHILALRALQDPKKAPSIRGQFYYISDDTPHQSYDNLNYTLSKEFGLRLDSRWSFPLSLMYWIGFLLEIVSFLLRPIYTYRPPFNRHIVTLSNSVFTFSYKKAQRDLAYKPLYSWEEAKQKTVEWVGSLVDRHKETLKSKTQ
Assay: immunoprecipitation and western blot from patient prostate tissue

B1: BMX (endogenous, human prostate tissue) (enzyme, UniProt P51813 1-675, looked up)
chain: MDTKSILEELLLKRSQQKKKMSPNNYKERLFVLTKTNLSYYEYDKMKRGSRKGSIEIKKIRCVEKVNLEEQTPVERQYPFQIVYKDGLLYVYASNEESRSQWLKALQKEIRGNPHLLVKYHSGFFVDGKFLCCQQSCKAAPGCTLWEAYANLHTAVNEEKHRVPTFPDRVLKIPRAVPVLKMDAPSSSTTLAQYDNESKKNYGSQPPSSSTSLAQYDSNSKKIYGSQPNFNMQYIPREDFPDWWQVRKLKSSSSSEDVASSNQKERNVNHTTSKISWEFPESSSSEEEENLDDYDWFAGNISRSQSEQLLRQKGKEGAFMVRNSSQVGMYTVSLFSKAVNDKKGTVKHYHVHTNAENKLYLAENYCFDSIPKLIHYHQHNSAGMITRLRHPVSTKANKVPDSVSLGNGIWELKREEITLLKELGSGQFGVVQLGKWKGQYDVAVKMIKEGSMSEDEFFQEAQTMMKLSHPKLVKFYGVCSKEYPIYIVTEYISNGCLLNYLRSHGKGLEPSQLLEMCYDVCEGMAFLESHQFIHRDLAARNCLVDRDLCVKVSDFGMTRYVLDDQYVSSVGTKFPVKWSAPEVFHYFKYSSKSDVWAFGILMWEVFSLGKQPYDLYDNSQVVLKVSQGHRLYRPHLASDTIYQIMYSCWHELPEKRPTFQQLLSSIEPLREKDKH
B1 was tested, and the binding was “binds”.
